Each number is a percent effect as filed.
The record does not define 0% and 100%; most values in the screen are far below 50% and negative numbers occur (in some assays of this library far below -100).
Compounds were drawn at random from those tested, without regard to their results.
A dash means the value is not listed here; it may have been measured.

By UniProt entry, the sequences of proteins in these tests, tags left out. Residues count along the entry.
UniProt Q8IDJ8, 1-583: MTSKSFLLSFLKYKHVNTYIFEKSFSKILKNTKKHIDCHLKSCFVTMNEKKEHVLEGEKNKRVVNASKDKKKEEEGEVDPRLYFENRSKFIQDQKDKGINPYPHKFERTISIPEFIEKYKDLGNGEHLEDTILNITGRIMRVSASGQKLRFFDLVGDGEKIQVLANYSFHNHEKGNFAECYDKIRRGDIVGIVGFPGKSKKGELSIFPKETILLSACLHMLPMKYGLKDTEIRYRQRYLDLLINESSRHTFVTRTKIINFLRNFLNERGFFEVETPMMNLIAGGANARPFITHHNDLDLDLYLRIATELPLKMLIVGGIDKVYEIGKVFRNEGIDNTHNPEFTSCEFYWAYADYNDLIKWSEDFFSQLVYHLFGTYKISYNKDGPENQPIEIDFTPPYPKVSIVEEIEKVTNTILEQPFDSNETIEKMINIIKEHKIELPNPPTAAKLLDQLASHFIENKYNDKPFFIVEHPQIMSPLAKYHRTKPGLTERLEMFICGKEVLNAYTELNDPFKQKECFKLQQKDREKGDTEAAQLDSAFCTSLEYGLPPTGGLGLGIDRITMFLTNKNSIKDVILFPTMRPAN
UniProt I6X8D2, whole entry: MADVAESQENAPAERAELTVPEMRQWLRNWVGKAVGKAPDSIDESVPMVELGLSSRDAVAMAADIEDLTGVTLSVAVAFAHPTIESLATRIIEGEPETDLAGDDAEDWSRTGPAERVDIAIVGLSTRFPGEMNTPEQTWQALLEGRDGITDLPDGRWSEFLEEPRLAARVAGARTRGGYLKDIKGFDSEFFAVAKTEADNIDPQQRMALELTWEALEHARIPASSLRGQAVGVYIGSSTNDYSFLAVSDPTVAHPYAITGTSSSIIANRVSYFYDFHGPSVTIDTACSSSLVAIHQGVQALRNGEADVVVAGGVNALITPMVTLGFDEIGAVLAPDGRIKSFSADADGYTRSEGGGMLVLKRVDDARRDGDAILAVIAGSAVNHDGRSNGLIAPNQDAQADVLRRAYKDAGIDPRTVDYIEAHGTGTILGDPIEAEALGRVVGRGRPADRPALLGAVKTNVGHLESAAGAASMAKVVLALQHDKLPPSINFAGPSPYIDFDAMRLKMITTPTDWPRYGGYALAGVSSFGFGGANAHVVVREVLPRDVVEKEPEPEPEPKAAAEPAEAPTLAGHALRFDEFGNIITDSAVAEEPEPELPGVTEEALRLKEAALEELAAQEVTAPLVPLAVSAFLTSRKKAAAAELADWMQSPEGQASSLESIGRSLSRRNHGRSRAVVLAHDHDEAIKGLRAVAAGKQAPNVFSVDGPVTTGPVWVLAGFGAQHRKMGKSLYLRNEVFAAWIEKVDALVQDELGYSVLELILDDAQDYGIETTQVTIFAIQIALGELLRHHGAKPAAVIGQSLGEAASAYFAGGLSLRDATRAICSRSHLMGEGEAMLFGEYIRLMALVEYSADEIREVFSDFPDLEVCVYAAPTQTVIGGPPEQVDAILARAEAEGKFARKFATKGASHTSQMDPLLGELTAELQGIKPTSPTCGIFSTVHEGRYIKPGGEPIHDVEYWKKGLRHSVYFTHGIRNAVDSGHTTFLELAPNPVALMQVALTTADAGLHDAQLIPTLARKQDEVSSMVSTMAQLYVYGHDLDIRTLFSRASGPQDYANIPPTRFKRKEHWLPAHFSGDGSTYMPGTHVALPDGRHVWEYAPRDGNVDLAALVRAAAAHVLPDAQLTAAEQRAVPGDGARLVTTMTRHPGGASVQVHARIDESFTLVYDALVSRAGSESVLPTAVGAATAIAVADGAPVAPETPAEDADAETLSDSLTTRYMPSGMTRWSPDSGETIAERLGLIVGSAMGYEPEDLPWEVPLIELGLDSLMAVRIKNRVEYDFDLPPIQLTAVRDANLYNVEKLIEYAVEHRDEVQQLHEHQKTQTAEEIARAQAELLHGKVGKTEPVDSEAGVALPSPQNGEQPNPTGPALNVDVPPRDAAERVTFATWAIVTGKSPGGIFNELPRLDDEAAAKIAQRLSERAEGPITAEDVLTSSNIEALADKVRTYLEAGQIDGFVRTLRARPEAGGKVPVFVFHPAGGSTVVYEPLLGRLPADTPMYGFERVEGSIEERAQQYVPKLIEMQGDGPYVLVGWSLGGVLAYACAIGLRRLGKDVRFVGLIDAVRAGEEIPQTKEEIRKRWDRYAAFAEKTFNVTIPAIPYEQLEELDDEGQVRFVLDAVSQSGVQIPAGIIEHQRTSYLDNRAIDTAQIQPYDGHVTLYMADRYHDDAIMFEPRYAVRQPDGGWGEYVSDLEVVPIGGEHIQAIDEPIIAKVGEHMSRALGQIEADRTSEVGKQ
UniProt P9WNZ1, whole entry: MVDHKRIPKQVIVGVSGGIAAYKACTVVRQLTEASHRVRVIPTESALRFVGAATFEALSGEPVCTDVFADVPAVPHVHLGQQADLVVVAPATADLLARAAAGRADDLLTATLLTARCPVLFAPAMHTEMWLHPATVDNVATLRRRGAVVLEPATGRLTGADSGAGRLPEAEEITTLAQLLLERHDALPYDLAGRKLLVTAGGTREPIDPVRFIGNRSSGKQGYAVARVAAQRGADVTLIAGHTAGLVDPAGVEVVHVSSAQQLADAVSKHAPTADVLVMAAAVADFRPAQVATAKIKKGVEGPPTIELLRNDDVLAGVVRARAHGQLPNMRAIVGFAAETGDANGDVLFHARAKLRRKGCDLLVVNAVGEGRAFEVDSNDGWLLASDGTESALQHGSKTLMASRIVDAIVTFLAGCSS
UniProt Q4DA54, 1-478: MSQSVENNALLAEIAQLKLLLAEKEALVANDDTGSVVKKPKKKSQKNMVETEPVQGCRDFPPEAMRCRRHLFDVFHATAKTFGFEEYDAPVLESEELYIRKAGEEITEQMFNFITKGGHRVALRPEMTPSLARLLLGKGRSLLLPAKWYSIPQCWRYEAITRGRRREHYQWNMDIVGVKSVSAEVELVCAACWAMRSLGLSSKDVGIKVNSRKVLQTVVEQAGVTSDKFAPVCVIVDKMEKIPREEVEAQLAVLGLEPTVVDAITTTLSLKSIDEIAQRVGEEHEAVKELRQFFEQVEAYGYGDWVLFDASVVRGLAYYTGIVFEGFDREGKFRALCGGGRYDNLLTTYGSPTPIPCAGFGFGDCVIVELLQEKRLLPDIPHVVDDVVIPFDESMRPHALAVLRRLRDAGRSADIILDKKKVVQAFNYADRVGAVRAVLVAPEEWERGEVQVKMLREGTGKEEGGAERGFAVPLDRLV
UniProt P9WFT3, whole entry: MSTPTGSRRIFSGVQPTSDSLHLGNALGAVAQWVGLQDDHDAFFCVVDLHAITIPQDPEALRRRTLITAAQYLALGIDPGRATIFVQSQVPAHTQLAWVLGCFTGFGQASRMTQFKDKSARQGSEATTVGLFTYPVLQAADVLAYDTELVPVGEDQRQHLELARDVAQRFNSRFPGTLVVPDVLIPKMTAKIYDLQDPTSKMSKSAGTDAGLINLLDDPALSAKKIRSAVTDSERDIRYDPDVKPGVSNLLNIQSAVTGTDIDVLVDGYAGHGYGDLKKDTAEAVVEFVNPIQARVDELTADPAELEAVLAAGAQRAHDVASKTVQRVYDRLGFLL
UniProt P9WPC5, whole entry: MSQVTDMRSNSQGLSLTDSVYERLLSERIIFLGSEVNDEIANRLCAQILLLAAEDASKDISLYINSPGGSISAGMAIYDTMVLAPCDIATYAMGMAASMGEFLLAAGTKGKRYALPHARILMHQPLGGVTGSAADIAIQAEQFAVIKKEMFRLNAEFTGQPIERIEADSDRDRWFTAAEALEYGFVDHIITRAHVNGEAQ
UniProt P9WPC3, whole entry partner: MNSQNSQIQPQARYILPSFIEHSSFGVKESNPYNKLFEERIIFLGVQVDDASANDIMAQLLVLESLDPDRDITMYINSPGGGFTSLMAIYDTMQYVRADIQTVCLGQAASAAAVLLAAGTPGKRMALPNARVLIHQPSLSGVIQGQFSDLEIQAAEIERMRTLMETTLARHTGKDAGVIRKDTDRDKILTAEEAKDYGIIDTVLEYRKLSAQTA

A: 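Lysine-tRNA ligase, Plasmodium falciparum 3D7 (UniProt Q8IDJ8). Enzyme assay of the cytosolic lysyl-tRNA synthetase in 384-well plates, read by luminescence. Tested at 30 µM. Higher reads as stronger inhibition, judged from the few compounds that gave an IC50. Of about 69,000 compounds tested this way, about 49 (0.071%) reached 50% or more in at least one test.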
B: 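Enzyme assay of the thioesterase domain of polyketide synthase 13; the read-out is not stated. Target: Polyketide synthase Pks13, Mycobacterium tuberculosis (UniProt I6X8D2). Tested at 30 µM. The record gives no direction; the compounds picked for IC50 retests had high values, so higher reads as stronger inhibition. About 67,000 compounds were tested under these conditions; 0.46% (about 300) showed 50% or more at least once.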
C: 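Coenzyme A biosynthesis protein CoaBC, Mycobacterium tuberculosis (UniProt P9WNZ1). Enzyme assay of CoaBC with a phosphate dye (Biomol Green) read at 650 nm. Tested at 30 µM. Direction is inferred from only a few compounds that gave an IC50; most scored high, so higher reads as stronger inhibition. Most strong results did not repeat in a second test. Of about 67,000 compounds tested this way, about 40 (0.06%) reached 50% or more in at least one test.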
D: 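Enzyme assay of histidyl-tRNA synthetase; the read-out is not stated. Target: Histidine-tRNA ligase, Trypanosoma cruzi CL Brener (UniProt Q4DA54). Compounds at 30 µM. Higher reads as stronger inhibition (inferred: compounds with an IC50 in retests scored well above the rest). Size under these conditions: about 69,000 compounds, about 31 of them at 50% or above in at least one test.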
E: 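Tryptophan-tRNA ligase, Mycobacterium tuberculosis (UniProt P9WFT3). Enzyme assay of tryptophanyl-tRNA synthetase; the read-out is not stated. Concentration: 10 µM. Direction is not recorded; retested compounds ran higher, which suggests that high means inhibition. Size under these conditions: about 65,000 compounds, about 64 of them at 50% or above in at least one test.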
F: 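ClpP1P2, Mycobacterium tuberculosis (UniProt P9WPC5 and UniProt P9WPC3). Protease assay of ClpP1P2, read by the AMC dye that it sets free. Compounds at 50 µM. Higher reads as stronger inhibition, judged from the few compounds that gave an IC50. Most other retested compounds had strongly negative values. Of about 69,000 compounds tested this way, about 10 (0.015%) reached 50% or more in at least one test.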

SMILES	A	B	C	D	E	F
CCc1ccc2c(C3CN(S(C)(=O)=O)C3)ncn2c1	2.228	5.292	-0.1626	9.804	-3.666	-5.735
CCN1CCO[C@]2(CCC[C@H]2COCc2csc(C)n2)C1	4.559	-18.16	0.3861	3.825	-0.09588	-1.087
O=C(O)c1ccccc1-c1cnc(CNC(=O)C2CCOCC2)nc1	-0.6972	3.656	-13.67	2.273	-0.5529	21.93
CCCNC(=O)N1CCC(Oc2cc(C)ccc2F)(C(=O)O)CC1	0.3401	-23.19	5.063	-1.626	11.37	-11.04
O=C(Cn1cc(I)cn1)N1CCCC1	3.207	-36.68	1.211	-1.639	-2.412	-3.151
NC(=O)CCCNC(=O)COc1ccccc1C(F)(F)F	4.538	-29.74	7.438	0.578	-7.162	7.137
Cc1oc(-c2nc(C#N)c(NCC(C)C)o2)cc1S(=O)(=O)N1CCCC1	-1.843	-2.275	-0.5051	0.5848	-1.471	2.83
Cc1ccc(CNCCOc2ccc(S(C)(=O)=O)cc2)cc1	-7.489	-9.911	-7.957	7.438	-2.714	-5.774
CCNC(=O)[C@@H]1C[C@H](N)CN1c1cc(CC)nc(N(C)C)n1	4.181	-29.97	7.485	9.877	1.234	2.919
CCOC(=O)c1n[nH]cc1CN1CCOC(Cc2ccc(OC)cc2)C1 (stereo unspecified)	3.465	-6.875	0.8589	3.704	-2.549	-3.296
O=C(NCCCN1CCOCC1)c1nc(-c2ccc3cc[nH]c3c2)no1	4.679	-16.54	2.525	4.094	-2.031	0.6098
COc1cc2c(nn1)CCN(CC(O)COc1ccc(C#N)cc1)C2 (stereo unspecified)	1.095	-12.75	-1.945	9.091	-2.249	0.9833
NC(=O)C1CCN(C(=O)CCCc2ccc(Cl)c(Cl)c2)CC1	2.061	-26.57	-	11.69	-2.786	4.68
O=C(NCc1nnc2n1CCC2)c1cn(-c2ccccc2Br)nn1	9.567	-18.35	2.138	-2.679	3.81	0.6395
OCCN1CCN(CC2(O)CCCCC2)CC1	1.717	-18.73	12.31	2.041	1.175	-9.957
Cc1cnn(CCC(=O)N2CCCN(c3nc(C)cs3)CC2)c1	1.066	-0.7226	6.562	6.857	-5.158	-18.68
CN(C)S(=O)(=O)N1CC[C@]2(C[C@H](Oc3ncccc3F)CO2)C1	0.9499	-3.416	-2.445	1.639	-0.6711	0.8802
FC(F)(F)C1CCCn2c(CNCc3cccs3)nnc21 (stereo unspecified)	-1.102	-12.48	2.337	5.747	-2.626	7.029
CCC(CC)n1nc(C)cc1NC(=O)C1CCOC1 (stereo unspecified)	-3.875	-18.52	7.727	1.622	1.636	-2.09
COc1ccc(C2CC(=O)NCc3nc(N(C)C)sc32)c(O)c1 (stereo unspecified)	1.007	-11	1.44	8.901	-3.32	-0.7099
CC(=O)N1CCN(C(=O)Cn2ccc3c(Cl)cccc32)CC1	4.498	-38.32	3.321	6.061	1.731	-1.133
NC(=O)N1C[C@@H]2CN(C(=O)c3ccco3)C[C@@H]2C1	0.826	-25.23	4.326	9.709	-2.506	-5.584
O=C(CC1CCCO1)N1CCCN(c2cccnn2)CC1 (stereo unspecified)	1.042	-5.176	13.6	5.814	-1.163	-11.69
c1ccc(OCC2C[C@@H]3[C@@H](C2)OCCN3Cc2ccoc2)nc1 (stereo partly specified)	2.38	1.532	2.683	5.556	-	3
COC(=O)CCC(=O)N1CCc2[nH]nc(-c3ccc(F)c(F)c3)c2C1	4.413	-8.519	4.405	1.695	-2.85	-14.26
CC(C)c1nnsc1CN1CCc2[nH]nc(-c3ccc(Cl)cc3)c2C1	-0.2946	-40.82	8.065	10.61	5.717	-9.98
CC1N(c2cnn(C)c2)C(=O)COC12CCN(c1ccccn1)CC2 (stereo unspecified)	2.495	0.07591	-0.3636	1.676	-	8.693
COCCOC[C@]1(CNCc2cccc(OC)c2)C[C@@H](O)[C@@H](O)C1	8.329	-8.45	-4.289	5.941	2.033	-0.02867
Cc1ncncc1C(=O)N1CCC(O)(CN(C)Cc2ccc(F)cc2)C1 (stereo unspecified)	2.017	3.672	1.225	-3.191	-	-0.903
CN(c1ccc(C(=O)NCCCN2CCCCC2)c(Cl)c1)S(C)(=O)=O	2.178	4.796	2.284	5.83	0.1937	-19.26
Cc1cc(F)ccc1NC(=O)NCC(C)N1CCOCC1 (stereo unspecified)	4.931	-8.265	-1.269	1.345	-3.551	-0.4084
Cc1cc2ccccc2n1CCC(=O)N1CCC[C@H]1C(N)=O	16.08	-	3.24	5.042	3.173	-1.519
O=C(NCc1cccs1)c1[nH]nc2c1CS(=O)(=O)CC2	6.313	-7.984	-1.04	4.386	3.374	-18.22
Cc1cccc(C(C(=O)NCc2csc(-c3ncccn3)n2)N(C)C)c1 (stereo unspecified)	-0.32	-23.55	-	3.185	2.119	10.27
CCN1CCC(NC(=O)CN2CC(n3nc(C)cc3C)C2)CC1	-1.366	-23.36	9.542	3.38	-2.3	21.54
Cc1nc(C)c(C(=O)NCCNc2cc(N3CCCC3)ncn2)s1	-2.498	11.07	-11.57	6.358	9.814	-6.069
CC(NC(=O)N1CCC(n2cncn2)CC1)c1ccc(F)cc1F (stereo unspecified)	13.45	-33.23	-5.398	-2.256	2.124	7.83
O=C(NCC1CC(=O)N(CCc2ccccc2)C1)c1ccc[nH]1 (stereo unspecified)	4.559	-5.109	10.71	4.082	-1.701	2.534
COCC(=O)N1CCC2(CC1)CN(c1ccsc1)C(=O)CO2	0.6046	-15.14	2.5	10.78	0.9382	11.5
CC(C)c1noc(C(C)N2CCN(CCc3ccncc3)CC2)n1 (stereo unspecified)	-1.428	-29.9	4.147	1.961	-3.204	-2.517
CN1CCCc2ccc(S(=O)(=O)NC(=O)C3CC=CC3)cc21	2.685	-5.904	10.98	7.182	-4.259	-4.014
CCC1=N[C@@]2(CC[C@@H]3CN(C(=O)NCC4CCCCC4)C[C@@H]32)C(=O)N1	3.483	-11.86	12.37	4.202	-0.6875	4.178
CCC(=O)Nc1ccc(OCC(=O)N(C)C(C)c2ccon2)cc1 (stereo unspecified)	0.3652	-8.91	12.95	0.5525	-5.676	3.564
O=c1c(S(=O)(=O)N2CCCCC2)cccn1Cc1cccnc1	1.523	4.954	-0.2358	4.124	4.311	20.09
CCc1nc(CC(=O)N2CCn3c(CC)nnc3C2)cs1	1.081	-16.33	0.2558	3.529	-5.408	-29.43
COc1cccc2cc(CNCc3ccnc(N(C)C)c3)oc12	4.392	4.518	3.947	5.233	12.38	2.55
Cc1cc(C)nc(N2CCC(c3nnc(CN(C)C)n3C3CC3)CC2)n1	4.741	-9.123	-0.9862	2.116	0.4617	-4.167
O=C(Cc1ccccc1)N1CCN(CC(O)c2ccc(F)cc2)CC1 (stereo unspecified)	0.7513	2.203	3.061	5.848	-6.789	-19.63
CCCc1ncc(CN(C)C2CCCN(CCc3ccccc3)C2)cn1 (stereo unspecified)	4.523	-0.04755	4.946	-0.5025	0.6522	-15.28
CCC(=O)N1CCCC1c1nccnc1Nc1ncccn1 (stereo unspecified)	2.549	-29.05	-10.83	1.622	-1.756	-6.415
O=C(c1[nH]nc(C2CC2)c1Cl)N1CCN(S(=O)(=O)c2ccccc2)CC1	-4.712	-10.54	-	0	12.49	-0.3424
CS(=O)(=O)N1Cc2nccn2CC(Cn2ncccc2=O)C1 (stereo unspecified)	4.936	-3.537	2.919	2.703	0.3148	12.04
COCCCC1(C(=O)O)CCCN(C(=O)c2ccc(Cl)cc2F)C1 (stereo unspecified)	1.691	-38.65	3.929	1.293	-1.254	-14
Cc1ncc(C(=O)N2CC(C(=O)N3CCCCCC3)C2)c(C)n1	2.193	-2.339	1.48	4.545	-5.409	-9.813
CC(=O)c1ccc(OCC(=O)NS(=O)(=O)c2cccnc2)cc1	-2.001	-41.55	3.069	4.118	20.9	-19.25
c1cnc(Nc2cncc(C3CCCN(c4cnccn4)C3)n2)nc1 (stereo unspecified)	1.625	33.65	3.874	13.33	-	-3.755

For reference, 4 entries once more:

* O=C(NCCCN1CCOCC1)c1nc(-c2ccc3cc[nH]c3c2)no1 | A: 4.679%; B: -16.54%; C: 2.525%; D: 4.094%; E: -2.031%; F: 0.6098%
* COc1cccc2cc(CNCc3ccnc(N(C)C)c3)oc12 | A: 4.392%; B: 4.518%; C: 3.947%; D: 5.233%; E: 12.38%; F: 2.55%
* CCNC(=O)[C@@H]1C[C@H](N)CN1c1cc(CC)nc(N(C)C)n1 | A: 4.181%; B: -29.97%; C: 7.485%; D: 9.877%; E: 1.234%; F: 2.919%
* COc1cc2c(nn1)CCN(CC(O)COc1ccc(C#N)cc1)C2 (stereo unspecified) | A: 1.095%; B: -12.75%; C: -1.945%; D: 9.091%; E: -2.249%; F: 0.9833%

Source: ChEMBL document CHEMBL3988442, “University of Dundee, Small-Polar-MMV Screening Library” (2021).